Test results from the supplement of paper PMC10849652.
The other results are listed elsewhere or left out.

By UniProt entry, the sequences of proteins in these tests, tags left out. Where a name states a change or a piece, a line headed by the entry shows the natural chain unless it says otherwise.
UniProt P51946: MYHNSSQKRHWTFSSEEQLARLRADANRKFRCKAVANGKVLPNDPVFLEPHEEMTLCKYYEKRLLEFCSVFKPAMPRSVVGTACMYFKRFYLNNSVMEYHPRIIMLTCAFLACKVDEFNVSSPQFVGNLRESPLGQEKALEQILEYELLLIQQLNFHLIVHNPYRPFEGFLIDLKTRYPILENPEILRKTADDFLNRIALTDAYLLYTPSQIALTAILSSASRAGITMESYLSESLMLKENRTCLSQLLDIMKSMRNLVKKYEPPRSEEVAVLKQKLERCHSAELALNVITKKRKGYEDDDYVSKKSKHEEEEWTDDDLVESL
UniProt Q8NHZ8, whole entry, looked up: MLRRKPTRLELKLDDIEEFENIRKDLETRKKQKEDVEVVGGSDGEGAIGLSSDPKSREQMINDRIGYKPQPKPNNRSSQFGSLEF
UniProt Q08722, whole entry, looked up: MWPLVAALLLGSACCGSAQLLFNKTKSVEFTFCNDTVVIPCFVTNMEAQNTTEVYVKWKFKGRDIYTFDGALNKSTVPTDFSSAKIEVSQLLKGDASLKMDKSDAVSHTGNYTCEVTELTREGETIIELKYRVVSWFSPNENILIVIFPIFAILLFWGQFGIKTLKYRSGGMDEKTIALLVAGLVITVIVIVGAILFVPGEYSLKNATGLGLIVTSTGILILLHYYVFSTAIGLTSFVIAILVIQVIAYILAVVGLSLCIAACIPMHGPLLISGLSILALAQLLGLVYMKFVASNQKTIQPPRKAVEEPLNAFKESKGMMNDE
UniProt P30281: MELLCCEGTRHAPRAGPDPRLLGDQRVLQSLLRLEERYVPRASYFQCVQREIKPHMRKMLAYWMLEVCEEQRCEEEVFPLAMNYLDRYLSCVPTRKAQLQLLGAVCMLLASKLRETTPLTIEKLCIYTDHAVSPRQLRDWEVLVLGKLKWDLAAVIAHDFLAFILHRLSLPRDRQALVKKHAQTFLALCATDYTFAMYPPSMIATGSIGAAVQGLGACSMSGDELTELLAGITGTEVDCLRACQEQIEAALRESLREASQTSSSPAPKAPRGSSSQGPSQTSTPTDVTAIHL
UniProt Q04900: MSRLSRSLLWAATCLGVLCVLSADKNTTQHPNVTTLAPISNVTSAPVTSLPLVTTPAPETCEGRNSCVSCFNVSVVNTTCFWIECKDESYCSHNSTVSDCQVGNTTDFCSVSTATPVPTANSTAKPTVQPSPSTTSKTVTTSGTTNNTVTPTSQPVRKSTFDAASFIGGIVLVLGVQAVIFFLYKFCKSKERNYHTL
UniProt P42574: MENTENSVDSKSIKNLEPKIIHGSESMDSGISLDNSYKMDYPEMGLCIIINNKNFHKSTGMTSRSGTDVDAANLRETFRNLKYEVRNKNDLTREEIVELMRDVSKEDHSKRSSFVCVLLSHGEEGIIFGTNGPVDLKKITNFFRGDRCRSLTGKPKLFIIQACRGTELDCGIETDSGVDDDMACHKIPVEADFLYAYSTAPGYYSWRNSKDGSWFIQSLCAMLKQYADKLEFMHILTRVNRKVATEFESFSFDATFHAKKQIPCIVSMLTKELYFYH
UniProt Q6P4E1: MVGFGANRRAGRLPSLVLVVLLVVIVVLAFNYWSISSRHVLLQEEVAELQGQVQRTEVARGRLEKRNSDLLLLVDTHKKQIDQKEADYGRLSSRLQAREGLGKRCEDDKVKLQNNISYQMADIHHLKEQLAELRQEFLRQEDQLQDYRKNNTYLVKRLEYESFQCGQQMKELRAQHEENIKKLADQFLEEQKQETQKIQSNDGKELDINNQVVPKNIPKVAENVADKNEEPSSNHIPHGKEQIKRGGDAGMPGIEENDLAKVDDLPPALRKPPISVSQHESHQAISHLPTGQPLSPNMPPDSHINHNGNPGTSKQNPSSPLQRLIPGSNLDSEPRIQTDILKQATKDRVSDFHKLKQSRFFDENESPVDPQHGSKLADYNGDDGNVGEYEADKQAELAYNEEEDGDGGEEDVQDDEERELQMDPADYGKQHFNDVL
UniProt Q9BRT8: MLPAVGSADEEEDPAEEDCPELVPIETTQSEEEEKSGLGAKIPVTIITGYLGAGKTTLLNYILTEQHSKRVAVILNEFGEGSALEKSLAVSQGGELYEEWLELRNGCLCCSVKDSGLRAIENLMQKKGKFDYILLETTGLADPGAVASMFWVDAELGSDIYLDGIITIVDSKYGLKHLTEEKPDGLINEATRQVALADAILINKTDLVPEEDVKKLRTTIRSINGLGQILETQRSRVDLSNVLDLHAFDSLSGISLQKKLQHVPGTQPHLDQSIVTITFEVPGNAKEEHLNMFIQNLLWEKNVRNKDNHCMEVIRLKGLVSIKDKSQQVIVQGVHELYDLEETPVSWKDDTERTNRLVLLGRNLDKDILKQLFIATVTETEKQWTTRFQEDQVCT
UniProt P60953, whole entry, looked up: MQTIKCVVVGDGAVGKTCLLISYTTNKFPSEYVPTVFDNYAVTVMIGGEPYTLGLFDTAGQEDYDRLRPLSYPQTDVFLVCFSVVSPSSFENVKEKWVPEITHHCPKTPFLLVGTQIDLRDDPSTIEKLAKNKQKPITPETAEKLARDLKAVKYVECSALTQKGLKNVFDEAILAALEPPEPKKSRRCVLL
UniProt Q8N4S0: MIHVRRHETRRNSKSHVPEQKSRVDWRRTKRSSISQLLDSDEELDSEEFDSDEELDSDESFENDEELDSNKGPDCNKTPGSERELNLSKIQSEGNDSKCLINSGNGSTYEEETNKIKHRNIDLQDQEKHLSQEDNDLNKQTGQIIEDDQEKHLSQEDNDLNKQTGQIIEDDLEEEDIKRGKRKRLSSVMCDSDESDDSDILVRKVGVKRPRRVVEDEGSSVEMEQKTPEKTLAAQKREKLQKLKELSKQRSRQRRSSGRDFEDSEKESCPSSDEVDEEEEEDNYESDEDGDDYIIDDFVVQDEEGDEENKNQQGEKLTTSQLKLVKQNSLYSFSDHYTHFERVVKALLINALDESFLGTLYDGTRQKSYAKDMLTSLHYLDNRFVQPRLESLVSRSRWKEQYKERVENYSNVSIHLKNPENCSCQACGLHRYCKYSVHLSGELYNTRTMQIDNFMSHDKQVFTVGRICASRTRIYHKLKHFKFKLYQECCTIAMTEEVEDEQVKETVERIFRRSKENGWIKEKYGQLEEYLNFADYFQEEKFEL
UniProt Q96A33: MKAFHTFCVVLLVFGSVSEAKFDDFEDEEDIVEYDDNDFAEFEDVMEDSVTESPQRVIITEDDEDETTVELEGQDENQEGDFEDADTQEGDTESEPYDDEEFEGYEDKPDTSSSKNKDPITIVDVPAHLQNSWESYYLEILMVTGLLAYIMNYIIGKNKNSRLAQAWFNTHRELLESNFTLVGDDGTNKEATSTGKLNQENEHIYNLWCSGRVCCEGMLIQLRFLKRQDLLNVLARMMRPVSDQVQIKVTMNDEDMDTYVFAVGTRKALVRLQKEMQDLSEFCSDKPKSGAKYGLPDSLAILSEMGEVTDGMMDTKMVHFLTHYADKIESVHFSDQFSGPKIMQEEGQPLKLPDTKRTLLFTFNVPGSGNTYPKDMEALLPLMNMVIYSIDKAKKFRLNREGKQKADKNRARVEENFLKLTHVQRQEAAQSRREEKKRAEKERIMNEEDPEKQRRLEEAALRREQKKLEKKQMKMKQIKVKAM
UniProt P08962, whole entry, looked up: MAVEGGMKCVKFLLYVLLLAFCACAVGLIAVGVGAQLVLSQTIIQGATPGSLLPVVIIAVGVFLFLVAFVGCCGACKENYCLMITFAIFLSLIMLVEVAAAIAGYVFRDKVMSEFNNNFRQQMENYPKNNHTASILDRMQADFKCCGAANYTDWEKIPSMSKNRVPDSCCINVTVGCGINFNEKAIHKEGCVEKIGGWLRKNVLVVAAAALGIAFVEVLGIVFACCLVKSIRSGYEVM
UniProt Q9NPF0: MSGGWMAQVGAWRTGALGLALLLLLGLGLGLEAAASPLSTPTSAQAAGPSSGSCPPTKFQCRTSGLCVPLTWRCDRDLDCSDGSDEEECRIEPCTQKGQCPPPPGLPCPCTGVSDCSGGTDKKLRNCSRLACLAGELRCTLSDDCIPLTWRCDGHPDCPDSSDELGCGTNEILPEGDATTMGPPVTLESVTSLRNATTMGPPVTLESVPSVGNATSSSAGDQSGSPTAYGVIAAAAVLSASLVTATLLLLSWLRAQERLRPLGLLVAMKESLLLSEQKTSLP
UniProt Q6PK04: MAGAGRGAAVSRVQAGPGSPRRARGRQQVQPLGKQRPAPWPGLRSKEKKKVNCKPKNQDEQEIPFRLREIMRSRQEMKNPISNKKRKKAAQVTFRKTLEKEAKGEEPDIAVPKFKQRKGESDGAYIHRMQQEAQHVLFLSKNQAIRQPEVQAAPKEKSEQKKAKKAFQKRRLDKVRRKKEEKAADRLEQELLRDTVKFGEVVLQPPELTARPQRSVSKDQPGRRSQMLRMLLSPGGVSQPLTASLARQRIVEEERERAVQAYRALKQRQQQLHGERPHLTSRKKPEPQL
UniProt Q9UJX2, whole entry, looked up: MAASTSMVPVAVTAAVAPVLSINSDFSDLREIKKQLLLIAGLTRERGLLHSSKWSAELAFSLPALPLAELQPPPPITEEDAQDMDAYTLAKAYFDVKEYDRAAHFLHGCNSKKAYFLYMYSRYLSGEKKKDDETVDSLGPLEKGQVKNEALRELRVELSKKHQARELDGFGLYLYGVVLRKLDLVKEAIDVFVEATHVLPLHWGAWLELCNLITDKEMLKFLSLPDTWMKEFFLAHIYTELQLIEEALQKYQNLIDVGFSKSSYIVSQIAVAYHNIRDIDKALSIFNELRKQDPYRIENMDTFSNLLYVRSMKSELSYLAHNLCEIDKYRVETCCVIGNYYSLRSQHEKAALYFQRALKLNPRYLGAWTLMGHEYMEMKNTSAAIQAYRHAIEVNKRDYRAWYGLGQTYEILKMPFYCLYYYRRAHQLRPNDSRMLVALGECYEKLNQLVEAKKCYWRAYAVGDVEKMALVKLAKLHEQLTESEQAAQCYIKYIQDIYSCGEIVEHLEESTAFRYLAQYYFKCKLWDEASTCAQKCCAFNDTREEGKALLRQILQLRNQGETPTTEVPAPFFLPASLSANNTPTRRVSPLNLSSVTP
UniProt Q8N4J0: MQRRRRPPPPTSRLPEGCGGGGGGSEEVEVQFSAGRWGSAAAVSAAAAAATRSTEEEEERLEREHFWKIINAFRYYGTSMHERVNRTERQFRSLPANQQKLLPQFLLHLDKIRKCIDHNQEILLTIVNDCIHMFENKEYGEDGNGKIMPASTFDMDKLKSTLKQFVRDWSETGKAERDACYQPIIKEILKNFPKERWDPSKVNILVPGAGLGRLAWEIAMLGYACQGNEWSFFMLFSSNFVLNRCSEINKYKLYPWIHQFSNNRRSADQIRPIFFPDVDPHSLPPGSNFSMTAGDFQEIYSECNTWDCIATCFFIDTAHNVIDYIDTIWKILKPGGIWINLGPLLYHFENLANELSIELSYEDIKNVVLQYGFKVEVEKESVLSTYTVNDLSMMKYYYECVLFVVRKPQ
UniProt P13987: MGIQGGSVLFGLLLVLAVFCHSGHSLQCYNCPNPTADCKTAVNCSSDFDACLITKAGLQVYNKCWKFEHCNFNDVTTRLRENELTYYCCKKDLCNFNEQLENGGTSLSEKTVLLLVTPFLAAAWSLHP
UniProt P50991: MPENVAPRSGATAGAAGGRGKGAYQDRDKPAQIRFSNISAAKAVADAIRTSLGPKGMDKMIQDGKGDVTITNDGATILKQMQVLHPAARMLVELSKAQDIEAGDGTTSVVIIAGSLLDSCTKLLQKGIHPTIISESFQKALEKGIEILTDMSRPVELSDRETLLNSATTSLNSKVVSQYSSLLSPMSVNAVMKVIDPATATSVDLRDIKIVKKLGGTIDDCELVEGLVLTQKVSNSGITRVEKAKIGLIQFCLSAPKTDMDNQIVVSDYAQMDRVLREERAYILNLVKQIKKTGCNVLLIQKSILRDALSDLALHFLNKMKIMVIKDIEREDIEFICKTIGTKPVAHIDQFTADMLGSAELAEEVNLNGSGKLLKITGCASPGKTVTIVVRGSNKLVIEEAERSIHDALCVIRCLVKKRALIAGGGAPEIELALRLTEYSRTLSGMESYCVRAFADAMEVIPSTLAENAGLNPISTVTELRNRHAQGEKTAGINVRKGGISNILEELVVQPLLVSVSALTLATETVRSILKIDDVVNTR
UniProt Q8WUD4: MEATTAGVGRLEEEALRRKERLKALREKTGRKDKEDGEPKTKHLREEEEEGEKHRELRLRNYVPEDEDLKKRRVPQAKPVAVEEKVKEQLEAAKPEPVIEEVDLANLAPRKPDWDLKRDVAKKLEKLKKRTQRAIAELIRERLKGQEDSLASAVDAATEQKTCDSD
UniProt O75794: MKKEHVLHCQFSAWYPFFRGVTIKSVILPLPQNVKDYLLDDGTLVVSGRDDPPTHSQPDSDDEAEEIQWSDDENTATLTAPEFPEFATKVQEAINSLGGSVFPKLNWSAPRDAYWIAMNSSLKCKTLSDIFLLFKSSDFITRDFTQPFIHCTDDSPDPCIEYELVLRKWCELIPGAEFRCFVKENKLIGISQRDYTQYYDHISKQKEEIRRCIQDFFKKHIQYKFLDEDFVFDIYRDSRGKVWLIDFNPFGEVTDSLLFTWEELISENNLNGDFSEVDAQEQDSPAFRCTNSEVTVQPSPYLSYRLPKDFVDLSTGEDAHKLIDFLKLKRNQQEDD

Key:
Assay in all cases: log2 fold change, soluble protein after heating vs DMSO (PISA); higher = thermal stabilisation; K562 cells, 10 uM, 30 min; active = over 0.2 and 3.5 SD of the protein, either way, in both replicates (recomputed)
erlotinib = compound: C#Cc1cccc(Nc2ncnc3cc(OCCOC)c(OCCOC)cc23)c1 [erlotinib]
Method in brief: (§1)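 Thermal stability values are relative to control samples and come from duplicates. They are expressed as log2 fold changes. For measurement, K562 cells (2×10^6 cells/mL) received 10 μM compound for 30 min, and aliquots were heated for 3 min over 48°C-58°C, pooled, and extracted at 4°C in PBS with 0.5% NP-40. Soluble protein, the supernatant after 21,000xg for 90 min, was quantified by TMTpro 16plex LC-MS/MS with equalised channel sums.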

[1] = compound: C/C(=N\NC(=O)C1=CC(=CC=C1)S(=O)(=O)N2CCOCC2)/C3=C(C=CC(=C3)Cl)O
Method in brief: as §1

[2] = compound: C1=CC(=C(C=C1Cl)C2=NC3=NC=CN=C3C(=N2)NC4=CC=NC=C4)F
Method in brief: as §1

[3] = compound: C1=CC(=CC=C1C2=NC3=C(N2)C=C(C=C3)C(=O)N)OC4=CC=C(C=C4)Cl
Method in brief: as §1

[4] = compound: C1=CC2=C(C=CC(=C2)/C=C\3/C(=O)NC(=NCC4=CC=CS4)S3)N=C1
Method in brief: as §1

[5] = compound: C1=CC2=NC=CN=C2C=C1/C=C/3\C(=O)NC(=O)S3
Method in brief: as §1

[6] = compound: C1=CC=C(C=C1)C2=NC(=C(N2)C3=CC=NC=C3)C4=CC(=C(C=C4)Cl)O
Method in brief: as §1

[7] = compound: C1=CC=C2C(=C1)C3=NNC4=CC=CC(=C43)C2=O
Method in brief: as §1

[8] = compound: C1CCN(C1)C(=O)NC2=CC=CC(=C2)NC3=NC=C(C(=N3)NCCC4=CN=CN4)Br
Method in brief: as §1

[9] = compound: C1CN(CCC1(CC2=CC=C(C=C2)Cl)N)C3=NC=NC4=C3C=CN4
Method in brief: as §1

Row | Target | log2 fold change (erlotinib) | log2 fold change [1] | log2 fold change [2] | log2 fold change [3] | log2 fold change [4] | log2 fold change [5] | log2 fold change [6] | log2 fold change [7] | log2 fold change [8] | log2 fold change [9]
1 | CCNH (UniProt P51946) | inactive: -0.022 | inactive: 0.021 | inactive: 0.034 | inactive: -0.016 | inactive: -0.045 | inactive: 0.031 | inactive: 0.022 | inactive: -0.004 | inactive: -0.011 | inactive: -0.015
2 | CDC25B isoform 4 (UniProt P30305) | inactive: -0.031 | inactive: 0.117 | inactive: 0.036 | inactive: 0.044 | inactive: -0.062 | inactive: 0.131 | inactive: -0.007 | inactive: -0.047 | – | –
3 | CDC26 (UniProt Q8NHZ8) | inactive: -0.096 | inactive: 0.16 | inactive: -0.046 | inactive: 0.034 | active: -0.542 | inactive: 0.025 | inactive: 0.355 | inactive: 0.037 | inactive: -0.137 | inactive: -0.022
4 | CD47 (UniProt Q08722) | inactive: 0 | inactive: 0.008 | inactive: 0.059 | inactive: -0.004 | inactive: -0.005 | inactive: 0.03 | inactive: -0.052 | inactive: -0.04 | inactive: 0.015 | inactive: 0.109
5 | CCNT1 (UniProt O60563) | inactive: -0.026 | inactive: 0.036 | inactive: -0.141 | inactive: 0.047 | inactive: -0.041 | inactive: -0.05 | inactive: -0.129 | inactive: -0.084 | inactive: -0.014 | inactive: -0.059
6 | CCND3 (UniProt P30281) | inactive: -0.028 | inactive: -0.025 | inactive: -0.081 | inactive: 0.036 | inactive: 0.143 | inactive: 0.289 | inactive: 0.047 | inactive: -0.001 | inactive: 0.09 | inactive: -0.043
7 | CD164 (UniProt Q04900) | inactive: -0.067 | inactive: 0.303 | inactive: -0.05 | inactive: 0.166 | inactive: 0.069 | inactive: -0.062 | inactive: -0.008 | inactive: -0.382 | – | –
8 | CDAN1 (UniProt Q8IWY9) | inactive: -0.031 | inactive: 0.048 | inactive: -0.171 | inactive: -0.011 | inactive: 0.039 | inactive: 0.066 | inactive: 0.019 | inactive: -0.057 | inactive: 0.109 | inactive: 0.03
9 | CASP3 (UniProt P42574) | inactive: -0.014 | inactive: -0.021 | inactive: 0.238 | inactive: 0.006 | inactive: -0.005 | inactive: -0.001 | inactive: 0.086 | inactive: 0.015 | inactive: -0.028 | inactive: 0.093
10 | CASC4 (UniProt Q6P4E1) | inactive: 0.123 | inactive: -0.111 | inactive: 0.001 | inactive: 0.007 | inactive: 0.083 | inactive: 0.03 | inactive: -0.077 | inactive: -0.01 | inactive: 0.025 | inactive: 0.045
11 | CBWD1 (UniProt Q9BRT8) | inactive: 0.055 | inactive: -0.038 | inactive: 0.011 | inactive: 0.001 | inactive: 0.055 | inactive: 0.077 | inactive: 0.076 | inactive: 0.179 | inactive: 0.115 | inactive: -0.277
12 | CDC42 isoform 1 (UniProt P60953) | inactive: 0.053 | inactive: -0.033 | inactive: 0.038 | inactive: -0.018 | inactive: -0.024 | inactive: 0.054 | inactive: -0.05 | inactive: -0.034 | inactive: 0.036 | inactive: 0.027
13 | CCDC91 (UniProt Q7Z6B0) | inactive: 0.083 | inactive: -0.003 | inactive: 0.038 | inactive: -0.132 | inactive: -0.019 | inactive: 0.052 | inactive: -0.024 | inactive: 0.014 | inactive: 0.033 | inactive: 0.006
14 | CCDC88A (UniProt Q3V6T2) | inactive: 0.168 | inactive: -0.048 | inactive: -0.079 | inactive: -0.013 | inactive: 0.177 | inactive: 0.136 | inactive: 0 | inactive: -0.032 | inactive: -0.055 | inactive: -0.067
15 | CCDC82 (UniProt Q8N4S0) | inactive: -0.08 | inactive: 0.035 | inactive: 0.011 | inactive: -0.026 | inactive: -0.01 | inactive: 0.046 | inactive: -0.022 | inactive: -0.092 | inactive: -0.004 | inactive: 0.022
16 | CCDC47 (UniProt Q96A33) | inactive: 0.003 | inactive: 0.047 | inactive: 0.062 | inactive: -0.023 | inactive: 0.069 | inactive: 0.021 | inactive: -0.046 | inactive: -0.024 | inactive: 0.005 | inactive: -0.003
17 | CCDC158 (UniProt Q5M9N0) | inactive: -0.026 | inactive: -0.116 | inactive: -0.257 | inactive: 0.1 | inactive: 0.045 | inactive: 0.03 | inactive: -0.115 | inactive: -0.043 | – | –
18 | CCPG1 isoform 5 (UniProt Q9ULG6) | inactive: -0.124 | inactive: -0.036 | inactive: -0.2 | inactive: 0.059 | inactive: -0.037 | inactive: 0.021 | inactive: 0.013 | inactive: -0.033 | inactive: 0.015 | inactive: -0.096
19 | CD63 (UniProt P08962) | inactive: 0.01 | inactive: 0.024 | inactive: -0.045 | inactive: -0.089 | inactive: -0.027 | inactive: 0.069 | inactive: 0.009 | inactive: 0.002 | inactive: 0.004 | inactive: 0.034
20 | CD320 (UniProt Q9NPF0) | inactive: 0.037 | inactive: 0.008 | inactive: 0.007 | inactive: -0.012 | inactive: 0.009 | inactive: 0.035 | inactive: -0.036 | inactive: 0 | inactive: 0.021 | inactive: 0.028
21 | CCDC137 (UniProt Q6PK04) | inactive: -0.244 | inactive: -0.173 | inactive: 0.117 | inactive: 0.004 | inactive: -0.032 | inactive: -0.043 | inactive: -0.174 | inactive: 0.066 | inactive: 0.126 | inactive: -0.078
22 | CDC23 (UniProt Q9UJX2) | inactive: -0.049 | inactive: 0.004 | inactive: -0.061 | inactive: 0.047 | inactive: 0.032 | inactive: -0.025 | inactive: -0.031 | inactive: -0.038 | inactive: 0.005 | inactive: -0.067
23 | CARNMT1 (UniProt Q8N4J0) | inactive: 0.025 | inactive: 0.014 | inactive: -0.007 | inactive: 0.025 | inactive: 0.121 | inactive: 0.024 | inactive: 0.007 | inactive: 0.033 | inactive: -0.02 | inactive: 0.018
24 | CD59 isoform 2 (UniProt P13987) | inactive: -0.029 | inactive: -0.049 | inactive: -0.061 | inactive: -0.013 | inactive: -0.048 | inactive: 0.012 | inactive: 0.081 | inactive: -0.049 | inactive: 0.02 | inactive: -0.023
25 | CCT4 (UniProt P50991) | inactive: -0.008 | inactive: 0.019 | inactive: 0.021 | inactive: 0.019 | inactive: 0.009 | inactive: -0.003 | inactive: 0.06 | inactive: 0.012 | inactive: 0.003 | inactive: 0.002
26 | CCDC12 (UniProt Q8WUD4) | inactive: 0.011 | inactive: -0.025 | inactive: -0.015 | inactive: 0.002 | inactive: -0.023 | inactive: 0.045 | inactive: -0.057 | inactive: 0.002 | inactive: 0.001 | inactive: 0.007
27 | CCZ1 (UniProt P86791) | inactive: 0.027 | inactive: 0.046 | inactive: -0.003 | inactive: 0.064 | inactive: 0.034 | inactive: -0.017 | inactive: 0.031 | inactive: 0.011 | inactive: 0.016 | inactive: 0.011
28 | CBFB isoform 2 (UniProt Q13951) | inactive: -0.048 | inactive: 0.073 | inactive: 0.109 | inactive: -0.063 | inactive: -0.01 | inactive: 0.057 | inactive: 0 | inactive: -0.038 | inactive: 0.057 | inactive: -0.076
29 | CDC123 (UniProt O75794) | inactive: -0.039 | inactive: 0.038 | inactive: 0.011 | inactive: 0.036 | inactive: -0.021 | inactive: 0.032 | inactive: 0.048 | inactive: -0.001 | inactive: -0.001 | inactive: 0.023
30 | CD97 (UniProt P48960) | inactive: -0.073 | inactive: -0.002 | inactive: 0.016 | inactive: 0.011 | inactive: -0.032 | inactive: 0.016 | inactive: 0.039 | inactive: 0.023 | inactive: -0.022 | inactive: -0.004

Record cards, from the list above. Values in the order: log2 fold change (erlotinib) | log2 fold change [1] | log2 fold change [2] | log2 fold change [3] | log2 fold change [4] | log2 fold change [5] | log2 fold change [6] | log2 fold change [7] | log2 fold change [8] | log2 fold change [9]
CDC26 (UniProt Q8NHZ8) is listed as inactive: -0.096 | inactive: 0.16 | inactive: -0.046 | inactive: 0.034 | active: -0.542 | inactive: 0.025 | inactive: 0.355 | inactive: 0.037 | inactive: -0.137 | inactive: -0.022
CARNMT1 (UniProt Q8N4J0) is listed as inactive: 0.025 | inactive: 0.014 | inactive: -0.007 | inactive: 0.025 | inactive: 0.121 | inactive: 0.024 | inactive: 0.007 | inactive: 0.033 | inactive: -0.02 | inactive: 0.018
